Assay results reported in PMC8903684.
These are yes or no findings as the source states them, for the method shown. Binding seen in cells or lysates may run through a third protein. Some entries that bind do so weakly or less than the wild type.

Legend:
[1] = biological target: T1, Transmembrane protein 43 (TMEM43), endogenous (human (endogenous in MIAPaCa-2 and SW1990)) (UniProt Q9BTV4); test: co-IP; endogenous proteins in SW1990 and MIAPaCa-2 lysates (RIPA lysis buffer); immunoprecipitated with anti-TMEM43 or anti-PRPF3 antibodies or IgG, 3 h at 4 °C, protein A/G magnetic beads overnight; western blot
T1 sequence: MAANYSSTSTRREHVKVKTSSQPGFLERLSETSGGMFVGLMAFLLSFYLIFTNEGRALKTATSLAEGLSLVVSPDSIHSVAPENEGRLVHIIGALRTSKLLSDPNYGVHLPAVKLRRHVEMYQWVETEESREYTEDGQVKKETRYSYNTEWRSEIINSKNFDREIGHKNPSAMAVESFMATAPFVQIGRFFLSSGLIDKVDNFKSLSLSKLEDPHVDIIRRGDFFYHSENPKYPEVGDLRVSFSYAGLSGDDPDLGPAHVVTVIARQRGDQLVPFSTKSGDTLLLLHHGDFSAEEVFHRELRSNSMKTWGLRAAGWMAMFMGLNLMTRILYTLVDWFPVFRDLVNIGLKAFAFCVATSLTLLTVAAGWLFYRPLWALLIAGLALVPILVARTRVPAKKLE

[2] = biological target: T2, Exogenous TMEM43 expressed in HEK293 cells (UniProt Q9BTV4); test: co-IP; exogenous TMEM43 and PRPF3 in HEK293 cells; IP/western blotting; anti-flag/HA magnetic beads
T2 sequence: T1 sequence

B1: Pre-mRNA processing factor 3 (PRPF3), endogenous (protein, UniProt O43395 1-683)
chain: MALSKRELDELKPWIEKTVKRVLGFSEPTVVTAALNCVGKGMDKKKAADHLKPFLDDSTLRFVDKLFEAVEEGRSSRHSKSSSDRSRKRELKEVFGDDSEISKESSGVKKRRIPRFEEVEEEPEVIPGPPSESPGMLTKLQIKQMMEAATRQIEERKKQLSFISPPTPQPKTPSSSQPERLPIGNTIQPSQAATFMNDAIEKARKAAELQARIQAQLALKPGLIGNANMVGLANLHAMGIAPPKVELKDQTKPTPLILDEQGRTVDATGKEIELTHRMPTLKANIRAVKREQFKQQLKEKPSEDMESNTFFDPRVSIAPSQRQRRTFKFHDKGKFEKIAQRLRTKAQLEKLQAEISQAARKTGIHTSTRLALIAPKKELKEGDIPEIEWWDSYIIPNGFDLTEENPKREDYFGITNLVEHPAQLNPPVDNDTPVTLGVYLTKKEQKKLRRQTRREAQKELQEKVRLGLMPPPEPKVRISNLMRVLGTEAVQDPTKVEAHVRAQMAKRQKAHEEANAARKLTAEQRKVKKIKKLKEDISQGVHISVYRVRNLSNPAKKFKIEANAGQLYLTGVVVLHKDVNVVVVEGGPKAQKKFKRLMLHRIKWDEQTSNTKGDDDEESDEEAVKKTNKCVLVWEGTAKDRSFGEMKFKQCPTENMAREHFKKHGAEHYWDLALSESVLESTD
[1]
  binding: binds

B2: Exogenous PRPF3 expressed in HEK293 cells (protein, UniProt O43395 1-683)
chain: B1 chain
[2]
  binding: binds
